Results on one molecule are retold here after patent US20040137588A1 (published 2004).

Amino acid sequences for entries named in this document (tags omitted). A change or cut given only in a name is not applied to a line headed by its entry. Residues count along the entry.
UniProt P17948, residues 27-687: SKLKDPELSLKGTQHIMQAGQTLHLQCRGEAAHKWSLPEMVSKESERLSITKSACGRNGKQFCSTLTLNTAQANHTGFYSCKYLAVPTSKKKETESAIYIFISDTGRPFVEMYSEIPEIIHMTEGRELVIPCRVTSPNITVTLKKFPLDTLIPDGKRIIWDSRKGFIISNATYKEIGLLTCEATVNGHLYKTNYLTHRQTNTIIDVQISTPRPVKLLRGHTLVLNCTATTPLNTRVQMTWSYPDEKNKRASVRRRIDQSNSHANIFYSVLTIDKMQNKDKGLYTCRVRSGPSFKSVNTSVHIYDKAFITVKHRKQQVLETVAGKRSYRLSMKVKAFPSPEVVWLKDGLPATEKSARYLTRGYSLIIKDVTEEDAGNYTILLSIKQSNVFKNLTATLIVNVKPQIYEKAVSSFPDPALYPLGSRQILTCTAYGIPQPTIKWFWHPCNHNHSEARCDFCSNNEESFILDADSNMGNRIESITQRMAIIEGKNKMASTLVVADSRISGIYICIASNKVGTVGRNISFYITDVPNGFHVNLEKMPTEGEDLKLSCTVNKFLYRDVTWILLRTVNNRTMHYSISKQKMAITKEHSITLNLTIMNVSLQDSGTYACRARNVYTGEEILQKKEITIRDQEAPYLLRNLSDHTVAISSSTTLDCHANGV

The target in assay [1] is VEGF-R1/Fc chimeric protein (R&D systems) (human) (UniProt P17948). As to the kind of experiment: SPR and ELISA based assay. For orientation: In an ELISA, binding on a coated surface is turned into a signal by an enzyme label.
The target is the same in assay [2]. Put plainly: SPR and ELISA based analysis.

Results are given in words; binding and its absence hold for the method and conditions named. Some binding calls cover weakened binding; strength is not graded here.

B1: purified refolded dimeric VEGF-B167 (ligand, human, UniProt P49765-2 22-188, looked up, not shown: small tags and cut ends)
chain: PVSQPDAPGHQRKVVSWIDVYTRATCQPREVVVPLTVELMGTVAKQLVPSCVTVQRCGGCCPDDGLECVPTGQHQVRMQILMIRYPSSQLGEMSLEEHSQCECRPKKKDSAVKPDSPRPLCPRCTQHHQRPDPRTCRCRCRRRSFLRCQGRGLELNPDTCRCRKLRR
notes: mature
As to B1, the binding result in assay [1] and in assay [2] was “binds” throughout.
